Assay results as given in PMC6768103.
Results are given in words; binding and its absence hold for the method and conditions named.

Protein sequences, listed by entry. Tags and fused reporters are not part of them.
UniProt Q5SIY4: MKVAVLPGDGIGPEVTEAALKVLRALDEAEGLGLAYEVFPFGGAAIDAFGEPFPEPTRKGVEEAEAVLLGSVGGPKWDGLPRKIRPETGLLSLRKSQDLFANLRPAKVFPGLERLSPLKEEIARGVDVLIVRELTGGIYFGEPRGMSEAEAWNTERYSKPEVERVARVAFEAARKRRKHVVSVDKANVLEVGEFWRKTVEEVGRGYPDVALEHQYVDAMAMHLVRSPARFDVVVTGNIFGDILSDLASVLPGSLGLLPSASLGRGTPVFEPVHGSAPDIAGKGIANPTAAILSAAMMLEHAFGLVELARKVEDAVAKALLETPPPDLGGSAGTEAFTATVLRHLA
UniProt A0A8C2QII0: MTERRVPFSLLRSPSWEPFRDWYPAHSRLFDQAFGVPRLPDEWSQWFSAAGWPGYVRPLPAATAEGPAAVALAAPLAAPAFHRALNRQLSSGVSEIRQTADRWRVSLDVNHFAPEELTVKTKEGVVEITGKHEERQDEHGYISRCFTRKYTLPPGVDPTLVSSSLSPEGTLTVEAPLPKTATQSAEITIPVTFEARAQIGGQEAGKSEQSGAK

Assays:
[1] = target: isopropyl malate dehydrogenase from Thermus thermophilus HB8 (Thermus thermophilus HB8) (UniProt Q5SIY4); test: SEC; mixture of CgHspB1WT (30 µM) and IPMDH incubated at 25 and 55 °C for 30 min and analysed at the same temperature; the 55 °C mixture also cooled and analysed at 25 °C; both purified
[2] = target: T1, porcine heart citrate synthase (pig) (UniProt P00889); test: condition: only at room temperature without heating (native CS); CgHspB1WT 30 µM; SEC; mixture of CgHspB1WT (30 µM) and CS incubated at 25 °C for 30 min and analysed at 25 °C; both purified
T1 sequence: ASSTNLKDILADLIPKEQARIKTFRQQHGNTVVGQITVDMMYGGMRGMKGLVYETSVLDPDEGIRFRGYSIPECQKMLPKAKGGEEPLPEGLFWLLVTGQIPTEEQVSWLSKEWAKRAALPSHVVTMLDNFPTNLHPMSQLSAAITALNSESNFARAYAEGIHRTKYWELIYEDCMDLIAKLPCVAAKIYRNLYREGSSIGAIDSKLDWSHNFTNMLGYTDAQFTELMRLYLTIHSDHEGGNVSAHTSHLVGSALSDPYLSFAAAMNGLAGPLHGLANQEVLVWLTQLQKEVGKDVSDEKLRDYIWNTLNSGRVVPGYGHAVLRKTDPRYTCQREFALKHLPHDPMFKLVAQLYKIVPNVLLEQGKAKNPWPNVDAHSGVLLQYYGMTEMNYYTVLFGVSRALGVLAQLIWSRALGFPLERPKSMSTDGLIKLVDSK

“wild‐type CgHspB1 (HspB1/Hsp27 from Chinese hamster ovary cells) (from UniProt A0A8C2QII0 1-213)” was tested, and the binding [1] was “no binding (tested: CgHspB1WT 30 µM)” and the binding [2] was “no binding”.
